PMC9616960
Results are given in words; binding and its absence hold for the method and conditions named. Binding seen in cells or lysates may run through a third protein. These calls come from enrichment with a bait or labelling near it, and not all partners need be listed. For part of these data: Sequences can lack the tags named with a protein.

How the values were obtained:
[1] = target: T1, Neph1 (not stated (endogenous in glomeruli of rat or mouse)) (UniProt Q6X936); assay: affinity purification with mass spectrometry; three anti-Nephrin/Neph1 ABs immobilised on magnetic beads, two hours with CL-47 or CL-91 solubilisates of glomerular membrane fractions; eluates by nano-LC-MS/MS; specific: tnR >=0.2 against three target-unrelated ABs/IgG, in at least two anti-Nephrin/Neph1 APs
T1 sequence: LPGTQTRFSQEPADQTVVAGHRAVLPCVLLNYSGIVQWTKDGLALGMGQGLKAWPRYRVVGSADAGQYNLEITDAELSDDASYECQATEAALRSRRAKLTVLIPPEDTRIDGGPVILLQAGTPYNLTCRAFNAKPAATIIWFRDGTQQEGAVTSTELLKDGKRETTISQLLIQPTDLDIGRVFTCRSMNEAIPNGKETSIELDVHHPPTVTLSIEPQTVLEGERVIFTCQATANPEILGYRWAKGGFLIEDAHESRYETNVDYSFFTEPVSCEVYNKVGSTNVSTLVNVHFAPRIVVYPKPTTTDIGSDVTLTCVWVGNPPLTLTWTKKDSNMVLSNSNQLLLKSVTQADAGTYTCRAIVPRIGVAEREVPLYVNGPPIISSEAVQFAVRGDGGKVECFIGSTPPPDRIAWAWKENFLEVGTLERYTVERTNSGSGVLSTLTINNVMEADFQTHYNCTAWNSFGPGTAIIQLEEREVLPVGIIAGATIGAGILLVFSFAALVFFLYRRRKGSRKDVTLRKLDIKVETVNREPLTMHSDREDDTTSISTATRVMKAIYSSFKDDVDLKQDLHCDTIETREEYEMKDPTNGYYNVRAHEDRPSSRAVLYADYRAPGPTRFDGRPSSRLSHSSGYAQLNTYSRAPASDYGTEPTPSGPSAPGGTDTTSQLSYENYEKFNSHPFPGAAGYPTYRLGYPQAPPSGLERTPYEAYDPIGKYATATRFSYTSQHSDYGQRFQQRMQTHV

[2] = target: T2, Nephrin (not stated (endogenous in glomeruli of rat or mouse)) (UniProt Q9R044); assay: as above
T2 sequence: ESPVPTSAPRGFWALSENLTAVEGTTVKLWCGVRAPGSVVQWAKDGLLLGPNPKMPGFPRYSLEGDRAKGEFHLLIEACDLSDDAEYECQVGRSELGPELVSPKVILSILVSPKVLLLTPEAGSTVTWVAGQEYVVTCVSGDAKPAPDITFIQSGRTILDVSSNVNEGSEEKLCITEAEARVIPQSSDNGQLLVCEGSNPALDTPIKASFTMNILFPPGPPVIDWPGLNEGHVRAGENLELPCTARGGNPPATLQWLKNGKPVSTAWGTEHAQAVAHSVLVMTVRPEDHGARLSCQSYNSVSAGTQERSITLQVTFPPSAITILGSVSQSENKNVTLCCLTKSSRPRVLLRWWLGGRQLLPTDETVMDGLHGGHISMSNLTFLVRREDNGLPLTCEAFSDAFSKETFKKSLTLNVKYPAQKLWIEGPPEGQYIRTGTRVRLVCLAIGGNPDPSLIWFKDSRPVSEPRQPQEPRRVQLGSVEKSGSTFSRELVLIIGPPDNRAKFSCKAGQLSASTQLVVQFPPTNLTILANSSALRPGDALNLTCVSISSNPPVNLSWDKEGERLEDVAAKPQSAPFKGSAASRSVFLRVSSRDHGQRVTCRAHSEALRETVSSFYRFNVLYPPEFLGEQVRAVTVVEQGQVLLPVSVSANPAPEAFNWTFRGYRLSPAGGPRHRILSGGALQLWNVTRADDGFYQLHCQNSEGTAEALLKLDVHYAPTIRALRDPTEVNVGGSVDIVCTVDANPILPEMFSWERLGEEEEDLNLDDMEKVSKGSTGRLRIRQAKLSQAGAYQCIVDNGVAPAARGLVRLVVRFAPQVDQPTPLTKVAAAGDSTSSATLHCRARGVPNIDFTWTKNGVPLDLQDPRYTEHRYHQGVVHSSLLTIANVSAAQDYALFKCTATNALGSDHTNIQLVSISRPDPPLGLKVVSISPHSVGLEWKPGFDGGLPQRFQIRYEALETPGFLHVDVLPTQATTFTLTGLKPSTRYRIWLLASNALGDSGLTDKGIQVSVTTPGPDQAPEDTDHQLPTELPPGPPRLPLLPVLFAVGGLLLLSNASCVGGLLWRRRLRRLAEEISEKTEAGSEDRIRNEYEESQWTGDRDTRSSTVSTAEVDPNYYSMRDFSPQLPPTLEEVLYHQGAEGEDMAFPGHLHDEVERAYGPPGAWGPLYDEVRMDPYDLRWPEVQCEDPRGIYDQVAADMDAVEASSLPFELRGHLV

[3] = target: T3, Podocin (mouse (endogenous in mouse glomeruli)) (UniProt Q91X05); assay: affinity purification with mass spectrometry; two anti-Podocin ABs immobilised on magnetic beads, two hours with CL-47 or CL-91 solubilisates of glomerular membrane fractions of wildtype mice; control: Podocin knockout mice; eluates by nano-LC-MS/MS; specific: tnR >0.25 with both ABs in either of two solubilisation conditions
T3 sequence: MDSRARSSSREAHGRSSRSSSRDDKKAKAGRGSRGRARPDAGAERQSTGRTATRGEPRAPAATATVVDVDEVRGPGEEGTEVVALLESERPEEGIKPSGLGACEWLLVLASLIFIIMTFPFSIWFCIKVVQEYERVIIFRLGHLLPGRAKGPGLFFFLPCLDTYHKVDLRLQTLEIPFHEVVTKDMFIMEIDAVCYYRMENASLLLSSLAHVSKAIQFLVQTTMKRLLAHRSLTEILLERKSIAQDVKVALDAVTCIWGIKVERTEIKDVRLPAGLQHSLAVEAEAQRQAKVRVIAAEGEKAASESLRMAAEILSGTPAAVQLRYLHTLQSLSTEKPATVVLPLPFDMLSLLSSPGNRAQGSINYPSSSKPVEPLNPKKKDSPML

B1: N-acetyl-glucosaminyl-transferase V (protein, UniProt Q08834 1-740)
chain: MAFFSPWKLSSQKLGFFLVTFGFIWGMMLLHFTIQQRTQPESSSMLREQILDLSKRYIKALAEENRNVVDGPYAGVMTAYDLKKTLAVLLDNILQRIGKLESKVDNLVNGTGANSTNSTTAVPSLVSLEKINVADIINGVQEKCVLPPMDGYPHCEGKIKWMKDMWRSDPCYADYGVDGTSCSFFIYLSEVENWCPRLPWRAKNPYEEADHNSLAEIRTDFNILYGMMKKHEEFRWMRLRIRRMADAWIQAIKSLAEKQNLEKRKRKKILVHLGLLTKESGFKIAETAFSGGPLGELVQWSDLITSLYLLGHDIRISASLAELKEIMKKVVGNRSGCPTVGDRIVELIYIDIVGLAQFKKTLGPSWVHYQCMLRVLDSFGTEPEFNHASYAQSKGHKTPWGKWNLNPQQFYTMFPHTPDNSFLGFVVEQHLNSSDIHHINEIKRQNQSLVYGKVDSFWKNKKIYLDIIHTYMEVHATVYGSSTKNIPSYVKNHGILSGRDLQFLLRETKLFVGLGFPYEGPAPLEAIANGCAFLNPKFNPPKSSKNTDFFIGKPTLRELTSQHPYAEVFIGRPHVWTVDLNNREEVEDAVKAILNQKIEPYMPYEFTCEGMLQRINAFIEKQDFCHGQVMWPPLSALQVKLAEPGQSCKQVCQESQLICEPSFFQHLNKEKDLLKYKVICQSSELYKDILVPSFYPKSKHCVFQGDLLLFSCAGAHPTHQRICPCRDFIKGQVALCKDCL
binding [1]: binds
binding [2]: binds

B2: Erlin-2 (protein, UniProt B5DEH2 1-339)
chain: MAQLGAVVAVASSFFCASLFSAVHKIEEGHIGVYYRGGALLTSTSGPGFHLMLPFITSYKSVQTTLQTDEVKNVPCGTSGGVMIYFDRIEVVNFLVPHAVYDIVKNYTADYDKALIFNKIHHELNQFCSVHTLQEVYIELFDQIDENLKLALQQDLTSMAPGLVIQAVRVTKPNIPEAIRRNYELMESEKTKLLIAAQKQKVVEKEAETERKKALIEAEKVAQVAEITYGQKVMEKETEKKISEIEDAAFLAREKAKADAECYTALKIAEANKLKLTPEYLQLMKYKAIASNSKIYFGKDIPNMFMDSAGGLGKQSEGLSDKLGFGLEDEPLETATKDN
binding [1]: binds
binding [2]: binds

B3: tyrosine kinase Mer (protein, UniProt Q60805 19-994)
chain: GGTAEKWEETELDQLFSGPLPGRLPVNHRPFSAPHSSRDQLPPPQTGRSHPAHTAAPQVTSTASKLLPPVAFNHTIGHIVLSEHKNVKFNCSINIPNTYQETAGISWWKDGKELLGAHHSITQFYPDEEGVSIIALFSIASVQRSDNGSYFCKMKVNNREIVSDPIYVEVQGLPYFIKQPESVNVTRNTAFNLTCQAVGPPEPVNIFWVQNSSRVNEKPERSPSVLTVPGLTETAVFSCEAHNDKGLTVSKGVHINIKVIPSPPTEVHILNSTAHSILVSWVPGFDGYSPLQNCSIQVKEADRLSNGSVMVFNTSASPHLYEIQQLQALANYSIAVSCRNEIGWSAVSPWILASTTEGAPSVAPLNITVFLNESNNILDIRWTKPPIKRQDGELVGYRISHVWESAGTYKELSEEVSQNGSWAQIPVQIHNATCTVRIAAITKGGIGPFSEPVNIIIPEHSKVDYAPSSTPAPGNTDSMFIILGCFCGFILIGLILCISLALRRRVQETKFGGAFSEEDSQLVVNYRAKKSFCRRAIELTLQSLGVSEELQNKLEDVVIDRNLLVLGKVLGEGEFGSVMEGNLKQEDGTSQKVAVKTMKLDNFSQREIEEFLSEAACMKDFNHPNVIRLLGVCIELSSQGIPKPMVILPFMKYGDLHTFLLYSRLNTGPKYIHLQTLLKFMMDIAQGMEYLSNRNFLHRDLAARNCMLRDDMTVCVADFGLSKKIYSGDYYRQGRIAKMPVKWIAIESLADRVYTSKSDVWAFGVTMWEITTRGMTPYPGVQNHEMYDYLLHGHRLKQPEDCLDELYDIMYSCWSADPLDRPTFSVLRLQLEKLSESLPDAQDKESIIYINTQLLESCEGIANGPSLTGLDMNIDPDSIIASCTPGAAVSVVTAEVHENNLREERYILNGGNEEWEDVSSTPFAAVTPEKDGVLPEDRLTKNGVSWSHHSTLPLGSPSPDELLFVDDSLEDSEVLM
binding [3]: binds

B4: R-PTP-O (protein, UniProt E9Q612 30-1226)
chain: FHVAVQDDNNIVVSLEASDIVSPASVYVVRVAGESKNYFFEFEEFNSTLPPPVVFKATYHGLYYIITLVVVNGNVVTKPSRSITVLTKPLPVTSVSIYDYKPSPETGVLFEIHYPEKYNVFSRVNISYWEGRDFRTMLYKDFFKGKTVFNHWLPGLCYSNITFQLVSEATFNKSTLVEYSGVSHEPKQHRTAPYPPRNISVRFVNLNKNNWEEPSGSFPEDSFIKPPQDSIGRDRRFHFPEETPETPPSNVSSGSPPSNVSSAWPDPNSTDYESTSQPFWWDSASAAPENEEDFVSALPADYDTETTLDRTEKPTADPFSAFPVQMTLSWLPPKPPTAFDGFNILIEREENFTDYLTVDEEAHEFVAELKEPGKYKLSVTTFSSSGACETRKSQSAKSLSFYISPTGEWIEELTEKPQHVSVHVLSSTTALMSWTSSQENYNSTIVSVVSLTCQKQKESQRLEKQYCTQVNSSKPVIENLVPGAQYQVVMYLRKGPLIGPPSDPVTFAIVPTGIKDLMLYPLGPTAVVLSWTRPILGVFRKYVVEMFYFNPTTMTSEWTTYYEIAATVSLTASVRIASLLPAWYYNFRVTMVTWGDPELSCCDSSTISFITAPVAPEITSVEYFNSLLYISWTYGDATTDLSHSRMLHWMVVAEGRKKIKKSVTRNVMTAILSLPPGDIYNLSVTACTERGSNTSLPRLVKLEPAPPKSLFAVNKTQTSVTLLWVEEGVADFFEVFCQQLGSGHNGKLQEPVAVSSHVVTISSLLPATAYNCSVTSFSHDTPSVPTFIAVSTMVTEVNPNVVVISVLAILSTLLIGLLLVTLVILRKKHLQMARECGAGTFVNFASLEREGKLPYSWRRSVFALLTLLPSCLWTDYLLAFYINPWSKNGLKKRKLTNPVQLDDFDSYIKDMAKDSDYKFSLQFEELKLIGLDIPHFAADLPLNRCKNRYTNILPYDFSRVRLVSMNEEEGADYINANYIPGYNSPQEYIATQGPLPETRNDFWKMVLQQKSHIIVMLTQCNEKRRVKCDHYWPFTEEPIAYGDITVEMVSEEEEEDWASRHFRINYADEAQDVMHFNYTAWPDHGVPPANAAESILQFVFTVRQQAAKSKGPMIIHCSAGVGRTGTFIALDRLLQHIRDHEFVDILGLVSEMRSYRMSMVQTEEQYIFIHQCVQLMWLRKKQQFCISDVIYENVSKS
binding [3]: binds
